Data as given in PubChem BioAssay AID1259424 (University of Nebraska Medical Center, 2018).
The whole screen tested about 14,000 reagents; this is an unselected part. 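Higher correlation or smaller distance means closer resemblance to KSR1 loss; control wells, including KSR1 knockdowns, recur on many plates.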 Further read-outs or replicates are left out here. Reagent sequences are not shown. Not given: the time to read-out.

Screen: 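Find knockdowns that reproduce the expression shifts seen after KSR1 loss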 (primary screen)
System: human HCT116 colon cancer cells
Reagents: siRNA pool against human genes, 50 nM
Detection: 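Six signature mRNAs by branched-DNA multiplex assay, scaled to two housekeeping genes and non-targeting median, log2; matched to mean KSR1 knockdown profile by Pearson correlation and euclidean distance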
Direction: mean correlation with KSR1 profile: higher = expression change more like KSR1 knockdown; mean distance from KSR1 profile: higher = expression change less like KSR1 knockdown

target gene	mean correlation with KSR1 profile	mean distance from KSR1 profile
ANKRD13C (ankyrin repeat domain 13C)	0.638	2.29
TXNDC15 (thioredoxin domain containing 15)	0.775	1.81
MMP21 (matrix metallopeptidase 21)	-0.541	1.84
ATP6V1G1 (ATPase H+ transporting V1 subunit G1)	-0.304	5.69
POLR1B (RNA polymerase I subunit B)	-0.268	3.03
KAZALD1 (Kazal type serine peptidase inhibitor domain 1)	0.348	1.47
VARS2 (valyl-tRNA synthetase 2, mitochondrial)	0.183	3.16
RER1 (retention in endoplasmic reticulum sorting receptor 1)	-0.62	2.73
GRSF1 (G-rich RNA sequence binding factor 1)	-0.518	3.25
GPR45 (G protein-coupled receptor 45)	0.614	2.08
TRPC6	-0.313	2.01
PRODH2 (proline dehydrogenase 2)	-0.281	2.6
C3AR1 (complement C3a receptor 1)	0.613	2.03
C8orf44 (chromosome 8 putative open reading frame 44)	-0.418	2.87
ACTN3 (actinin alpha 3)	0.0746	2.26
GPR146 (G protein-coupled receptor 146)	0.571	2.09
YWHAE	-0.246	4.42
ARL2 (ARF like GTPase 2)	-0.482	4.84
GJB5 (gap junction protein beta 5)	-0.151	1.19
AP1S1 (adaptor related protein complex 1 subunit sigma 1)	-0.154	1.98

As entered above.
VARS2 (valyl-tRNA synthetase 2, mitochondrial), mean distance from KSR1 profile → 3.16
Under “mean distance from KSR1 profile”, ACTN3 (actinin alpha 3) reads 2.26
For “mean distance from KSR1 profile”, ANKRD13C (ankyrin repeat domain 13C) has 2.29
